Results are given in words; binding and its absence hold for the method and conditions named. Binding seen in cells or lysates may run through a third protein. Binding calls can cover weak binding; strength is not graded here. One block for each molecule: values may come before it.
Assays:
[1] = target: T1, Discs large (Dlg) (Drosophila (endogenous in third instar larval body wall)) (UniProt P31007); assay: proximity ligation
T1 sequence: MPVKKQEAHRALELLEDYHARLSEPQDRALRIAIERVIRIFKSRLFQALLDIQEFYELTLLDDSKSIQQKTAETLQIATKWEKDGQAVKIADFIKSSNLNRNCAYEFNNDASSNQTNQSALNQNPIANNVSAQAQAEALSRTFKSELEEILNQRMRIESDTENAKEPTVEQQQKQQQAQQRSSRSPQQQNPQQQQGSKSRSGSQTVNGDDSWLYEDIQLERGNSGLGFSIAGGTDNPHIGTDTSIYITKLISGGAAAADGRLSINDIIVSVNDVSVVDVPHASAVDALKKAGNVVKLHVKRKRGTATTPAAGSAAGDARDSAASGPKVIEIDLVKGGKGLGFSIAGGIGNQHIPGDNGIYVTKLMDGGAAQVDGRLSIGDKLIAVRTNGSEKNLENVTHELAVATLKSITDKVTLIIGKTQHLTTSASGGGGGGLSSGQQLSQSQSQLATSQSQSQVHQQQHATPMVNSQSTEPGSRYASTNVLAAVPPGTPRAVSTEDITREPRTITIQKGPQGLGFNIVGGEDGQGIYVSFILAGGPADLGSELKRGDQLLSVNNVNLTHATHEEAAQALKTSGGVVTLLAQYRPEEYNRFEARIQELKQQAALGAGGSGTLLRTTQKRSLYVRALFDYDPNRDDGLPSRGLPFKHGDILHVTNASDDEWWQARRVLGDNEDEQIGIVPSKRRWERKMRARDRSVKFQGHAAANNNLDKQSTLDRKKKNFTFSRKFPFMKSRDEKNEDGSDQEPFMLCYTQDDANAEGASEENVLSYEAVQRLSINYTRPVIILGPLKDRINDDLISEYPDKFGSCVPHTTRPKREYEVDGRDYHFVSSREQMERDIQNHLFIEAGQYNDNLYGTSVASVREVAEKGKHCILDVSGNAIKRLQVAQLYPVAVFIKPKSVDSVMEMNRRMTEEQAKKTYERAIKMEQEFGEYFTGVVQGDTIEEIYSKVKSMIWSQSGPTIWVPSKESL

Sequences of proteins named here, by UniProt entry; tags and fusion partners are left off. A change or cut given only in a name is not applied to a line headed by its entry.
UniProt Q02645: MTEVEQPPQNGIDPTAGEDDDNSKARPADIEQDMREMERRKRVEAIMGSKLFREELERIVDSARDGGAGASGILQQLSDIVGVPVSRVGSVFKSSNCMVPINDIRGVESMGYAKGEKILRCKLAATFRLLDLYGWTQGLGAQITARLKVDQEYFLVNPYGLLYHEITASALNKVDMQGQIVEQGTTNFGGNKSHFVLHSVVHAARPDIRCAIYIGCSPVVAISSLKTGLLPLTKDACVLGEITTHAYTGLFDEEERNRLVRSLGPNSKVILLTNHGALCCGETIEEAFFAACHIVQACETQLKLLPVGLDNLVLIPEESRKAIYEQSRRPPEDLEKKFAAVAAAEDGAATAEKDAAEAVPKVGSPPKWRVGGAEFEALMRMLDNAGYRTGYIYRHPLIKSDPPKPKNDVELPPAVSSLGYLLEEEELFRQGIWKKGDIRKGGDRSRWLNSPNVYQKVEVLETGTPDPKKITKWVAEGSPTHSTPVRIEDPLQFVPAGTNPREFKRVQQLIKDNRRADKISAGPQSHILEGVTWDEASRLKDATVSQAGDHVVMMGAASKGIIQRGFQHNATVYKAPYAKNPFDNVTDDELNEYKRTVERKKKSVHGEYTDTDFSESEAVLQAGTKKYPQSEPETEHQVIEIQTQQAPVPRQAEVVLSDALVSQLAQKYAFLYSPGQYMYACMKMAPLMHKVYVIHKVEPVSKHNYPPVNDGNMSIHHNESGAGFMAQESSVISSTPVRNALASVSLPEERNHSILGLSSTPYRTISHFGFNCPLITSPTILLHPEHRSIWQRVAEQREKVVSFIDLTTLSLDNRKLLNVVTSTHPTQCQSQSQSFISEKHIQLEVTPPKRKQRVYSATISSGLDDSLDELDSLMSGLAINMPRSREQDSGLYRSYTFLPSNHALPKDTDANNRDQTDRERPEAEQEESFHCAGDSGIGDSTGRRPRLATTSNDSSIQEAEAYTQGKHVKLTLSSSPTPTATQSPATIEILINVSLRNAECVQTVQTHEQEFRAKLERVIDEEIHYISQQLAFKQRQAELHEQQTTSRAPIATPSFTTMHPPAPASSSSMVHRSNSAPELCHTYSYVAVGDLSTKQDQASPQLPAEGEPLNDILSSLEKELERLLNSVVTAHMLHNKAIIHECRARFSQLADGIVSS

[2] = target: Hu Li Tai Shao (Hts), Drosophila adducin (Drosophila (endogenous in third instar larval body wall)) (UniProt Q02645); assay: proximity ligation

- binding [1]: binds
Molecule: GluRIIB (receptor)

- binding [2]: binds
B1: Draper (Drpr) (receptor, UniProt Q9W0A0 17-1031)
chain: QADLKDLDGPNICKRRELYNVDVVYTELQSFQERGSTWCVTFPPRCSTYRIKHRVVNKTKTIAKNRIVRDCCDGYIASAGECVPHCSEPCQHGRCISPEKCKCDHGYGGPACDINCPPGWYGRNCSMQCDCLNNAVCEPFSGDCECAKGYTGARCADICPEGFFGANCSEKCRCENGGKCHHVSGECQCAPGFTGPLCDMRCPDGKHGAQCQQDCPCQNDGKCQPETGACMCNPGWTGDVCANKCPVGSYGPGCQESCECYKGAPCHHITGQCECPPGYRGERCFDECQLNTYGFNCSMTCDCANDAMCDRANGTCICNPGWTGAKCAERICEANKYGLDCNRTCECDMEHTDLCHPETGNCQCSIGWSSAQCTRPCTFLRYGPNCELTCNCKNGAKCSPVNGTCLCAPGWRGPTCEESCEPGTFGQDCALRCDCQNGAKCEPETGQCLCTAGWKNIKCDRPCDLNHFGQDCAKVCDCHNNAACNPQNGSCTCAAGWTGERCERKCDTGKFGHDCAQKCQCDFNNSLACDATNGRCVCKQDWGGVHCETNCRSGYYGENCDKVCRCLNNSSCDPDSGNCICSAGWTGADCAEPCPPGFYGMECKERCPEILHGNKSCDHITGEILCRTGYIGLTCEHPCPAGLYGPGCKLKCNCEHGGECNHVTGQCQCLPGWTGSNCNESCPTDTYGQGCAQRCRCVHHKVCRKADGMCICETGWSGTRCDEVCPEGFYGEHCMNTCACPSANFQCHAAHGCVCRSGYTGDNCDELIASQRIADQSENSSRASVALTLVLMTLFACIIFAVFIYYRRRVSNLKTEIAHVHYTHDTNPPSWPPNHNFDNPVYGMQAETRLLPNNMRSKMNNFDQRSTMSTDYGDDCNASGRVGSYSINYNHDLLTKNLNADRTNPIVYNESLKEEHVYDEIKHKEGYKDPDEYDHLDYSRPSTSQKPHYHRMNDAMLNINQDEEKPSNVKNMTVLLNKPLPPTEPEPQHECFDNTNTNLDNVSTASPSSSPKFLK
